These are yes or no findings as the source states them, for the method shown. In cells and extracts the contact can be indirect. Some results given as binding are weak or reduced against the parent protein; the word gives no strength.

The chains behind the UniProt entries cited, without tags or fusion partners. Residues count along the entry.
UniProt Q9Y2J2: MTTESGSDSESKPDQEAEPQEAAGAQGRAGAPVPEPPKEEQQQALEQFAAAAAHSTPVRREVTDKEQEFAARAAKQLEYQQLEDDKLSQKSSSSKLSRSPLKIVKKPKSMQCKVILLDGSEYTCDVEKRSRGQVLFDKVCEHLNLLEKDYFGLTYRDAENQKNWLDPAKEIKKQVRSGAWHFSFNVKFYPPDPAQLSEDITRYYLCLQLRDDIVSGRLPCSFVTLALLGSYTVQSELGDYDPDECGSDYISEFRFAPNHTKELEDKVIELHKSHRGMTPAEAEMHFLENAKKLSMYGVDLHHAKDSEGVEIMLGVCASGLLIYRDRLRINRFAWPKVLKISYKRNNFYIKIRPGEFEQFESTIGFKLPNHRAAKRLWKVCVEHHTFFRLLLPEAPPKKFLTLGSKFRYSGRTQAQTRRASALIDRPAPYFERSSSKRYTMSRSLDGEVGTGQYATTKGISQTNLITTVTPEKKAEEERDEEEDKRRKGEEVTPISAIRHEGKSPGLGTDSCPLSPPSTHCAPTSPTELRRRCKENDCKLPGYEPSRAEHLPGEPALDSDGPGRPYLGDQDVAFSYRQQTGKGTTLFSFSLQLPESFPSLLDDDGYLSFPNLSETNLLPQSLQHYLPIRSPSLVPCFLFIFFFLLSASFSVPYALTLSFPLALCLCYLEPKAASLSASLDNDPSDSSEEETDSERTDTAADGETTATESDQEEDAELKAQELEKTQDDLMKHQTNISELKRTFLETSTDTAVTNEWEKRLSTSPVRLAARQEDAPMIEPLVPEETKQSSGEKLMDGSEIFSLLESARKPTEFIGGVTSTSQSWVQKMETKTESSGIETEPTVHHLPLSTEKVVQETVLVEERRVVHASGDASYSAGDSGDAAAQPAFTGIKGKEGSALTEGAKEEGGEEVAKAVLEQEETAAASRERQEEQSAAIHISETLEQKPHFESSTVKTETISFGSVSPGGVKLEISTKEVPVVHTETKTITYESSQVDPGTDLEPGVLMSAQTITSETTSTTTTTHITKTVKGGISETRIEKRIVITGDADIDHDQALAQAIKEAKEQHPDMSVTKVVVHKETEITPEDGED
UniProt P11021, residues 19-654: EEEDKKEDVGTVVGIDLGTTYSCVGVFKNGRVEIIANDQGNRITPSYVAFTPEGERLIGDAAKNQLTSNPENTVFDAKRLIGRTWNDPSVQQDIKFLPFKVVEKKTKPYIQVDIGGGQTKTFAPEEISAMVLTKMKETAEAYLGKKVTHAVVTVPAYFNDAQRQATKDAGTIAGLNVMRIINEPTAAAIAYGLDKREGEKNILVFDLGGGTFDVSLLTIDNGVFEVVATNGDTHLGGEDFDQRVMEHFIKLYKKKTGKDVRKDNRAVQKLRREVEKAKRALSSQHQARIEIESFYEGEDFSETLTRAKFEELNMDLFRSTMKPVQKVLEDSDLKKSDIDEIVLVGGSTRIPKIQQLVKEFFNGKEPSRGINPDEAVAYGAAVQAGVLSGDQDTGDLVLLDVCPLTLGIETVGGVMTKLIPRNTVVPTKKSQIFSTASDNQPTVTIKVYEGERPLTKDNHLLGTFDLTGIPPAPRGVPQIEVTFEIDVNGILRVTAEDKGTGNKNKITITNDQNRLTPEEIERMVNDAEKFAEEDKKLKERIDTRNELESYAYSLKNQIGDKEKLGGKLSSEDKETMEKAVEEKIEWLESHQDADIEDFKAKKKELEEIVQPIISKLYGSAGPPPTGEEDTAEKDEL
UniProt P13674, residues 18-534: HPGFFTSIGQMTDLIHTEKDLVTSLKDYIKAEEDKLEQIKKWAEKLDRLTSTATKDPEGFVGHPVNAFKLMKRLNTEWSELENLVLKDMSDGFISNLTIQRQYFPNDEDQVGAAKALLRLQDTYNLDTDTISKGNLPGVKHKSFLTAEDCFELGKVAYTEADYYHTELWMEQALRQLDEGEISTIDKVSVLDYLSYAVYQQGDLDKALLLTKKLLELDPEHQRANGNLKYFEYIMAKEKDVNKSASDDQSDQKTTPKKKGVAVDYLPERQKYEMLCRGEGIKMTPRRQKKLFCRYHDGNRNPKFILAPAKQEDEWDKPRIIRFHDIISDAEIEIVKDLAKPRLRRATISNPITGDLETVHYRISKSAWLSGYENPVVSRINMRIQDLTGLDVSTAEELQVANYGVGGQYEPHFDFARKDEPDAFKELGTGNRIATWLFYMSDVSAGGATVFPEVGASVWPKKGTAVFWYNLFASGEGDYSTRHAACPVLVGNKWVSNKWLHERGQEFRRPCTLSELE

The target in the assay is differentially expressed in adenocarcinoma of the lung-1 (DAL-1), endogenous (human (endogenous in lung cancer cells)) (UniProt Q9Y2J2). The experiment in a line: co-IP; endogenous co-immunoprecipitation in lung cancer cells (cell line not stated) with DAL-1, control IgG beside it; Western blot. (In general: In western blotting, separated proteins are transferred to a membrane and probed.)

In the case of “Heat shock protein A5 (HSPA5) (from UniProt P11021 19-654)”, the binding entry was “binds”.
For the substance P4HA1 (from UniProt P13674 18-534), the binding entry was “no binding”.

The values are drawn from article PMC4307741.
